B1: eL38 (protein, UniProt P49167 1-78)
chain: MAREITDIKQFLELTRRADVKTATVKINKKLNKAGKPFRQTKFKVRGSSSLYTLVINDAGKAKKLIQSLPPTLKVNRL
B2: Nop12 (protein, UniProt Q08208 1-459)
chain: MSSAIDNLFGNIDEKKIESSVDKLFSSSCGPINKLEVKSKTRTVLPDSKKRERAAEADQEEKEASKPDVSDEQTEEVALPKVKKAKKSKRNDEDEDLEARYYAKLLNEEAEAEDDKPTVTKTDETSVPLTSAAKKVDFKEDELEKAERTVFIGNILSTVITSKKVYKEFKKLFGTNPIAETEESGNEKEEESSKKSDNNEFAIESIRFRSISFDEALPRKVAFVQQKFHKSRDTINAYIVYKNKSAVRKICSNLNAVVFQDHHLRVDSVAHPAPHDKKRSIFVGNLDFEEIEESLWKHFEPCGDIEYVRIIRDSKTNMGKGFAYVQFKDLQSVNKALLLNEKPMKSQKQEDENTKKPTKKARKLRVSRCKNMKKGTTIGTGLDRNGLTDSQRTRAGRAKKILGKADRATLGQEITIEGLRAKKGEGSTHLKKKKQRSATGRVTKRSIAFKKAQAEKSKK
B3: Nop4 (protein, UniProt P37838 1-685)
chain: MEETIENVEVPSSNVSKQNDDGLDMKTLFVRSIPQDVTDEQLADFFSNFAPIKHAVVVKDTNKRSRGFGFVSFAVEDDTKEALAKARKTKFNGHILRVDIAKRRDRSKKTSEVVEKSTPESSEKITGQNNEDEDDADGEDSMLKGKPKLIIRNMPWSCRDPVKLKKIFGRYGTVVEATIPRKRDGKLCGFAFVTMKKISNCRIALENTKDLKIDGRKVAVDFAVQKNRWEDYKKAQPEMNDKDDNESGNEDAEENHDDEEDENEEEDRQVDQASKNKESKRKAQNKREDFSVFVRNVPYDATEESLAPHFSKFGSVKYALPVIDKSTGLAKGTAFVAFKDQYTYNECIKNAPAAGSTSLLIGDDVMPEYVYEGRVLSITPTLVREDAGRMAEKNAAKRKEALGKAPGEKDRRNLYLLNEGRVVEGSKMADLLTNTDMEIREKSYKLRVEQLKKNPSLHLSMTRLAIRNLPRAMNDKALKALARKAVVEFATEVKNKERHPLSKEEIIRSTKEKYKFMGPDEIEAQKKKDKKSGVVKQAKVIMEVKGSTAGRSRGYGFVEFRDHKNALMGLRWLNCHAVTSDEILEGLNDDEKKQVDNDLGKGRRLCVEFAIENSNVVKRRREQLKQARTKRTRPDNEDTGDVGESENKKPKKEEATTPTNPDDKKMGDDIKRIIGFKRKRKHAKK
B4: Mak5 (enzyme, UniProt P38112 1-773)
chain: MGKKRAPQKGKTVTKPQEIIVDESKLNWKPVDIPDTLDDFGGFYGLEEIDGVDVKVVDGKVTFVTKKDSKVLKDSNKEKVGDDQESVENESGSDSESELLEFKNLDDIKEGELSAASYSSSDEDEQGNIESSKLTDPSEDVDEDVDEDVLKENVFNKDINIDDISPVNLPEWTNLAPLSMTILQSLQNLNFLRPTEIQKKSIPVIMQGVDVMGKASTGSGKTLAYGIPIVEKLISNFSQKNKKPISLIFTPTRELAHQVTDHLKKICEPVLAKSQYSILSLTGGLSIQKQQRLLKYDNSGQIVIATPGRFLELLEKDNTLIKRFSKVNTLILDEADRLLQDGHFDEFEKIIKHLLVERRKNRENSEGSSKIWQTLIFSATFSIDLFDKLSSSRQVKDRRFKNNEDELNAVIQHLMSKIHFNSKPVIIDTNPESKVSSQIKESLIECPPLERDLYCYYFLTMFPGTTLIFCNAIDSVKKLTVYLNNLGIPAFQIHSSMTQKNRLKSLERFKQQSAKQKTINHSNPDSVQLSTVLIASDVAARGLDIPGVQHVIHYHLPRSTDIYIHRSGRTARAGSEGVSAMICSPQESMGPLRKLRKTLATKNSVSTDLNSRSTNRKPIKWQNTVPLLPIETDILSQLRERSRLAGELADHEIASNSLRKDDNWLKKAADELGIDVDSDEDDISKSNSDTFLLKNKNKKMQKTINKDKVKAMRATLNELLSVPIRKDRRQKYLTGGLVNLADNLVKKRGHNSIIGHEKTNALETLKKKKKRNN

Protein sequences, listed by entry. Tags and fused reporters are not part of them. Lines headed by an entry give the natural chain unless they say otherwise; changes in a name come on top.
UniProt P14126: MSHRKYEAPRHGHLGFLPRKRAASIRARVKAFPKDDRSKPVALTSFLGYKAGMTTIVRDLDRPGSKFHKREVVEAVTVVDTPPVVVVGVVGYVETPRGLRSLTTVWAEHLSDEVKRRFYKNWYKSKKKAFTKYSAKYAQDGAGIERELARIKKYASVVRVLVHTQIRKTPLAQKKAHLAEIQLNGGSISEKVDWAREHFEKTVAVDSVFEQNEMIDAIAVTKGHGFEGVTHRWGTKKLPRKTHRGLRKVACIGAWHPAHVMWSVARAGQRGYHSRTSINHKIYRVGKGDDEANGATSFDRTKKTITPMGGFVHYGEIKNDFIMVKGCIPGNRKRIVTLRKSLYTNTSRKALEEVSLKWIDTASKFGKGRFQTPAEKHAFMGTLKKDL
UniProt P33322: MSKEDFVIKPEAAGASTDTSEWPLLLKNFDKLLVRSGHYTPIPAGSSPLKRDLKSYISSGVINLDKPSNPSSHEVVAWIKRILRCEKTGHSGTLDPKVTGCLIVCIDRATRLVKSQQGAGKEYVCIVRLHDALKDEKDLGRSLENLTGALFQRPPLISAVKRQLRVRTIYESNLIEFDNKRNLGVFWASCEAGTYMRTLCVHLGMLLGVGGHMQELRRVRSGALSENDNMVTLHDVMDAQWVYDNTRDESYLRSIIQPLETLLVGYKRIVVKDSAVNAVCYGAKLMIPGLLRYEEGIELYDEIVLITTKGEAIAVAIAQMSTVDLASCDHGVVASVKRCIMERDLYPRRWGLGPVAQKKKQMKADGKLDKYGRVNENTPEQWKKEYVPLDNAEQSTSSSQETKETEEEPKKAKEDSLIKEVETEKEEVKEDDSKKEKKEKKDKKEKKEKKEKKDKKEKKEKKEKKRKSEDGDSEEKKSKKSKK
UniProt P53131: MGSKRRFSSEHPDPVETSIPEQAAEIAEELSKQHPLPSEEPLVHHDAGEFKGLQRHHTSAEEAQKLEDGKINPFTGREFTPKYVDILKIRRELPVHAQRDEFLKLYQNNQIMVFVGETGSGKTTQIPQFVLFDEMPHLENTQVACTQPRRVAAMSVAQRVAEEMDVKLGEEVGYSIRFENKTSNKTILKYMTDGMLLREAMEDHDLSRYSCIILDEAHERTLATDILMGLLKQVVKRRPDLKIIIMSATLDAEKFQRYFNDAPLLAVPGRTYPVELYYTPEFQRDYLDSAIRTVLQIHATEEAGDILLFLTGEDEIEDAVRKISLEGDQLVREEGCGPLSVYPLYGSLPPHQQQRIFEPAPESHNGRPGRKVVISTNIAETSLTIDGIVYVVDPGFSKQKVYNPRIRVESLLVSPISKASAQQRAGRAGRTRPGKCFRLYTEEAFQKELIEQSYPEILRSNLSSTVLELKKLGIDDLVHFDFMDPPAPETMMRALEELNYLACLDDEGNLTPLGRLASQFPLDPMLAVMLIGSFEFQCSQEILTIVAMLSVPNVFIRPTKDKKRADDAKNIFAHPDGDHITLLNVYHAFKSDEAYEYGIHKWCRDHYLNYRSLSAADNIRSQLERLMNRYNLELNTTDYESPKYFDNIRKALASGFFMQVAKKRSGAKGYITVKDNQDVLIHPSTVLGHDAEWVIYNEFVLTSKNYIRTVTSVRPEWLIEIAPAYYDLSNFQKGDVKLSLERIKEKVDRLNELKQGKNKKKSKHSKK
UniProt P20447: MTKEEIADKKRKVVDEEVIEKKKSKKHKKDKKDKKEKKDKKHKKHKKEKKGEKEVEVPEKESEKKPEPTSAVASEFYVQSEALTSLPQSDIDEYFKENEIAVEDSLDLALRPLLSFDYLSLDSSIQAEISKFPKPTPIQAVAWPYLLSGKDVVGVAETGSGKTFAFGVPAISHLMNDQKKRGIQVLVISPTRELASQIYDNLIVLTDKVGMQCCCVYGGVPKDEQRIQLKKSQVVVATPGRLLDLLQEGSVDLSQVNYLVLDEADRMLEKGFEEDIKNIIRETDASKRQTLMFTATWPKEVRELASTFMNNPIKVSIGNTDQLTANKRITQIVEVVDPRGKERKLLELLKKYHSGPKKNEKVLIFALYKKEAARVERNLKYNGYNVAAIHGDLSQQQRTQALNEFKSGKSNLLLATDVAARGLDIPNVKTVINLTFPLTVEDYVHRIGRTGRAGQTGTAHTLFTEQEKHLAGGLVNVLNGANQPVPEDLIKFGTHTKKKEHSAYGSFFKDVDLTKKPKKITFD
UniProt P34241: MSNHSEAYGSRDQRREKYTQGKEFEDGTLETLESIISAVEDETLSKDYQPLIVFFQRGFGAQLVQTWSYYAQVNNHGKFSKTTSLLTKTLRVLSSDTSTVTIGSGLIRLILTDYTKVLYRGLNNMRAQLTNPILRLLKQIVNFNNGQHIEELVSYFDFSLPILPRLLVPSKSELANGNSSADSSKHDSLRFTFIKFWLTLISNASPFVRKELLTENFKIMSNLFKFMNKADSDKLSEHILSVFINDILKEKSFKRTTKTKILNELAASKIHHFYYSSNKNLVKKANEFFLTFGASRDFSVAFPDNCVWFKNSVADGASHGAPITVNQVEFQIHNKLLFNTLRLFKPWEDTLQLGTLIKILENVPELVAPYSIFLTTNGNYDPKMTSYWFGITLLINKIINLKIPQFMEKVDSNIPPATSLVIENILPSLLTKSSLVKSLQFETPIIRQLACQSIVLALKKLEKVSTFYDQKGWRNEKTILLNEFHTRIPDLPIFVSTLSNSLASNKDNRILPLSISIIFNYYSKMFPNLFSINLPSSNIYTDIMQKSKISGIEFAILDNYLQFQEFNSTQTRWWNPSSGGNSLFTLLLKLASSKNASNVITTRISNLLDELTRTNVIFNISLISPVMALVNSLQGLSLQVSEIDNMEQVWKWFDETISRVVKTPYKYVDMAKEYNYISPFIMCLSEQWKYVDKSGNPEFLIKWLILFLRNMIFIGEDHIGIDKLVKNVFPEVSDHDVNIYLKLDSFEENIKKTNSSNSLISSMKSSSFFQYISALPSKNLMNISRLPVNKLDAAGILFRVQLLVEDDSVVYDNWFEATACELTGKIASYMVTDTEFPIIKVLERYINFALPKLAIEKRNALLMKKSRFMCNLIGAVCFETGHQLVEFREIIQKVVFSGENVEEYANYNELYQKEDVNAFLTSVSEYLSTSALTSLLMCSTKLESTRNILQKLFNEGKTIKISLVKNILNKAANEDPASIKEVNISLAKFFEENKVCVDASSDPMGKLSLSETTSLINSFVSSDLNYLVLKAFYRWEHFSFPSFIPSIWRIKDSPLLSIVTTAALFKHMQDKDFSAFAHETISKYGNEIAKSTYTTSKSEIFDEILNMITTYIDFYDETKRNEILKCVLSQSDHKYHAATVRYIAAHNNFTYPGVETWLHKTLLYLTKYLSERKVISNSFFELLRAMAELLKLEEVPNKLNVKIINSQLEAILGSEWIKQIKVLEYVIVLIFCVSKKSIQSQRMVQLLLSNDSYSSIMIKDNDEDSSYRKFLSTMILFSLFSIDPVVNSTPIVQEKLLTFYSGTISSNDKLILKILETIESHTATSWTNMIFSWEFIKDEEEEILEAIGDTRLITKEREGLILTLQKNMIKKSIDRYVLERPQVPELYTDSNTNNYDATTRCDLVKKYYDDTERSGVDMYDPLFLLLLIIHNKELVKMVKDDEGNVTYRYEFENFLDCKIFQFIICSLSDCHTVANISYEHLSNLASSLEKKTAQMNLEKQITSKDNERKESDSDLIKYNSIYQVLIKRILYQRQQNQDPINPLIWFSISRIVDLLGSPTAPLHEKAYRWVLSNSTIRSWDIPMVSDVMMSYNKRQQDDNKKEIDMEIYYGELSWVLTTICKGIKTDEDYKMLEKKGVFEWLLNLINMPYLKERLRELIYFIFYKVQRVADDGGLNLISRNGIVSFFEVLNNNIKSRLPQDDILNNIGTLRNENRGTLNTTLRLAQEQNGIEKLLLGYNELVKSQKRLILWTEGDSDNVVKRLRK
UniProt P0C2H8: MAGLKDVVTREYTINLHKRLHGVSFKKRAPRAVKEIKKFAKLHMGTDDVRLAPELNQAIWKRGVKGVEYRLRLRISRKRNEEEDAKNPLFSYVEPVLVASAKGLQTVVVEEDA
UniProt P05743: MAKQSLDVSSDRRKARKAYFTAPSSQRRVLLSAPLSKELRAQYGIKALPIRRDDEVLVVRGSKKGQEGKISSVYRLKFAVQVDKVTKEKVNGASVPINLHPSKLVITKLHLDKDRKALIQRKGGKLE
UniProt Q05022: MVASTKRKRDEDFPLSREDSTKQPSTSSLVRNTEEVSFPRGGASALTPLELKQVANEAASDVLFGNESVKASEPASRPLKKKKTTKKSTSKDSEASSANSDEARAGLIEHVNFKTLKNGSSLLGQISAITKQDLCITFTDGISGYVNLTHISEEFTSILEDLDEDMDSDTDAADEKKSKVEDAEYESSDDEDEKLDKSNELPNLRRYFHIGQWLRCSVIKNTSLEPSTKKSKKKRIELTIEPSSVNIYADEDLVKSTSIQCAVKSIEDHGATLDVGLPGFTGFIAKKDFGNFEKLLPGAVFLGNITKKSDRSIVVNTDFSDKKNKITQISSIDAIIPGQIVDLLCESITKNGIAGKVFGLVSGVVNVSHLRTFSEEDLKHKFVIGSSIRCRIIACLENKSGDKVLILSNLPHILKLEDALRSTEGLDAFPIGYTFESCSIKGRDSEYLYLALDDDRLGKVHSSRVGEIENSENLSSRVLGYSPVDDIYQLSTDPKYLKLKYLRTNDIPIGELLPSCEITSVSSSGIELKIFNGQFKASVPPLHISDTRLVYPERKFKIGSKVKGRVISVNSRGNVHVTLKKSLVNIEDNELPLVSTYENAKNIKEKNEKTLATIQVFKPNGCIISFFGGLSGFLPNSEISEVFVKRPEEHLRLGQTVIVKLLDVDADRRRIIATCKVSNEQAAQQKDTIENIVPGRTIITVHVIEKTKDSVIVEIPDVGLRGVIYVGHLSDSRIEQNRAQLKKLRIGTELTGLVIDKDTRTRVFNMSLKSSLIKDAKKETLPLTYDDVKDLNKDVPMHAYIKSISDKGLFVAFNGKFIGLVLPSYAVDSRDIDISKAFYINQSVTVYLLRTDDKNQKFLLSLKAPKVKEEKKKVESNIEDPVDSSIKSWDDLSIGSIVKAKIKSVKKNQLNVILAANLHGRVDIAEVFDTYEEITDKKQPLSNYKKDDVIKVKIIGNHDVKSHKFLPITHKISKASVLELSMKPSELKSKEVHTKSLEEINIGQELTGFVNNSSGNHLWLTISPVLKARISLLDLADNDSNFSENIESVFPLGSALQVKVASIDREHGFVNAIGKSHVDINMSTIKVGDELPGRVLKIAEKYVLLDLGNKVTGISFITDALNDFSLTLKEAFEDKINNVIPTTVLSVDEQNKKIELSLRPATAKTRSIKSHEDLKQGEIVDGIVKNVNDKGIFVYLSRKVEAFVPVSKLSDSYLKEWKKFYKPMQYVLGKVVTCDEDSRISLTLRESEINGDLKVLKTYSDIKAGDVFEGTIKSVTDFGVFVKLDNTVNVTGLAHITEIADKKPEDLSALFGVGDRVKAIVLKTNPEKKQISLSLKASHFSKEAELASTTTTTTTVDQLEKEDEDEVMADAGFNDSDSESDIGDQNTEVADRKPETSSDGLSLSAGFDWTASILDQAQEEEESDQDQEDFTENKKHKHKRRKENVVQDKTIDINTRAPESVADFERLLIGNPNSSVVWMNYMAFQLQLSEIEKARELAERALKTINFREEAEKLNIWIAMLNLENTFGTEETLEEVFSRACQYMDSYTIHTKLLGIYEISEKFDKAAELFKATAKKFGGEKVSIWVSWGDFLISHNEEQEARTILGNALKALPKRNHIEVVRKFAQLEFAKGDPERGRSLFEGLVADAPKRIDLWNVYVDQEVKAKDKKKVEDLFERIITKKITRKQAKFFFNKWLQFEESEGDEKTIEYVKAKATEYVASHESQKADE
UniProt P0CX41: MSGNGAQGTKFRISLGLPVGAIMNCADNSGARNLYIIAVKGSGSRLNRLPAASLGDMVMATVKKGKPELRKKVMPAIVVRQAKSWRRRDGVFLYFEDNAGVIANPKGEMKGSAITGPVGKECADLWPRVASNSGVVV
UniProt P28007: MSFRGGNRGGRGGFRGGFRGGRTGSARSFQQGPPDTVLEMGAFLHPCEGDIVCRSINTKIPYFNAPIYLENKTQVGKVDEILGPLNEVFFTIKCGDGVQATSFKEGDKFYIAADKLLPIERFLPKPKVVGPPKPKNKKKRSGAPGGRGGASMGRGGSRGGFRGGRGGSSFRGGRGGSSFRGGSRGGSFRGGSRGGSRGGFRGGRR
UniProt Q02753: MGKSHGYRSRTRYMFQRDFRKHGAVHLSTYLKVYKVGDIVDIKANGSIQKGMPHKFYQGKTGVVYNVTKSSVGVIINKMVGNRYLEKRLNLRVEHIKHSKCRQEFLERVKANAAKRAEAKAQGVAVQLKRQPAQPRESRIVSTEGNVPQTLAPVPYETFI

Results are given in words; binding and its absence hold for the method and conditions named. Binding seen in cells or lysates may run through a third protein. These calls come from enrichment with a bait or labelling near it, and not all partners need be listed.

The first assay deals with T1, Nop2-TAP (S. cerevisiae) (UniProt P40991).
T1 sequence: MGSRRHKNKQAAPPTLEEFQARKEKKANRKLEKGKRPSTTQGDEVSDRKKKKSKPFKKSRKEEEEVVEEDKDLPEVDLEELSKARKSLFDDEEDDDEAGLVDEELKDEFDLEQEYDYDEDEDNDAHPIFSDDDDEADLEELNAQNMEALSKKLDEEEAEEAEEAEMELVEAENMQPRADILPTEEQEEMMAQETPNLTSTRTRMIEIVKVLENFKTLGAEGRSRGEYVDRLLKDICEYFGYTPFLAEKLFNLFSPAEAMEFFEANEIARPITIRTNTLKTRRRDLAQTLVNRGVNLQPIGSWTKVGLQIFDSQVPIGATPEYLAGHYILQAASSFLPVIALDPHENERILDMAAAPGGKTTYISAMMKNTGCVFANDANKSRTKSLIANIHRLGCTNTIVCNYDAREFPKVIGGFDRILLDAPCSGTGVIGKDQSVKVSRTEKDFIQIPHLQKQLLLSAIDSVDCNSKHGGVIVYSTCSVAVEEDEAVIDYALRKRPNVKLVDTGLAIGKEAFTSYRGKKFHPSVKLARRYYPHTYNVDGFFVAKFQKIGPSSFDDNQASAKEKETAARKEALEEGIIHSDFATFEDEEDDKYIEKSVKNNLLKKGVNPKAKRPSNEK
Description: affinity purification with mass spectrometry; Nop2-TAP particles isolated from whole-cell lysate of wild-type and Δdbp7 cells on IgG sepharose, eluted by overnight TEV cleavage; MS, two biological replicates.
Regarding B1, the binding result is given as “binds”.

On to B2, for which the binding entry is recorded as “binds”.

With B3, the binding result is “binds”.

With B4, the binding entry was “binds”.

The target in the next assay is T2, Dbp7-TAP (S. cerevisiae) (UniProt P36120).
T2 sequence: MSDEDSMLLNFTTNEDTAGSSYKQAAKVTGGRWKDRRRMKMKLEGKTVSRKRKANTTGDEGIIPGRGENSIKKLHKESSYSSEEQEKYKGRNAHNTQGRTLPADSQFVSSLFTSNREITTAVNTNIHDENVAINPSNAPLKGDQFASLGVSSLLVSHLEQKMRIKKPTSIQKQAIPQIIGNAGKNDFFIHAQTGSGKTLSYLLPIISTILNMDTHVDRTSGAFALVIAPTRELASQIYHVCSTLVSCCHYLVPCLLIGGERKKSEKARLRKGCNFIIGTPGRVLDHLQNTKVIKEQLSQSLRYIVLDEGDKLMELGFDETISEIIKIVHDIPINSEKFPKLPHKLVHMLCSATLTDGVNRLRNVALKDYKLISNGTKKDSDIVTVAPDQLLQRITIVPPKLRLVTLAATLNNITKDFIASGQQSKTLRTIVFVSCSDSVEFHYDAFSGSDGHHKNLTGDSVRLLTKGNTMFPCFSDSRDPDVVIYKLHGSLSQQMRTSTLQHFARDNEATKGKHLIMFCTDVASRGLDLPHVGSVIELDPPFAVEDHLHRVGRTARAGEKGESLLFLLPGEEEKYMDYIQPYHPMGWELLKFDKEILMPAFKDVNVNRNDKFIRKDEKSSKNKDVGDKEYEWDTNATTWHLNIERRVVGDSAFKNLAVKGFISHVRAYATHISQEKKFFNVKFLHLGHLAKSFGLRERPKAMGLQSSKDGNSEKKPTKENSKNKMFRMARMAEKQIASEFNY
The assay can be described thus: affinity purification with mass spectrometry; Dbp7-TAP captured from whole-cell lysate on IgG sepharose (50 mM Tris-HCl pH 7.8, 150 mM NaCl, 1.5 mM MgCl2, 0.05% NP-40, 2 mM DTT), eluted with TEV protease overnight at 4 °C; input and eluate by MS, wild-type extract as control; co-purified pre-ribosomal particles.
For the molecule uL3 (from UniProt P14126 1-387), the binding entry was “binds”.

For a further assay, the target named is T1, Nop2-TAP (S. cerevisiae). The assay can be described thus: affinity purification with mass spectrometry; Nop2-TAP particles isolated from whole-cell lysate of wild-type and Δdbp7 cells on IgG sepharose, eluted by overnight TEV cleavage; MS, two biological replicates. The source holds these as a separate data set.
As to Cbf5 (from UniProt P33322 1-483), the binding entry was “binds”.

With “Prp43 (from UniProt P53131 1-767) (enzyme)”, the binding result is recorded as “binds”.

As to “Dbp3 (from UniProt P20447 1-523) (enzyme)”, the binding entry was “binds”.

For Npa1 (from UniProt P34241 1-1764), the binding result was “binds”.

Consider eL31 (from UniProt P0C2H8), for which the binding entry is given as “binds”.

Take uL24 (from UniProt P05743): the binding result is “binds”.

Regarding Rrp5 (from UniProt Q05022 1-1729), the binding result is given as “binds”.

For the molecule uL14 (from UniProt P0CX41 1-137), the binding result is on record as “binds”.

Gar1 (from UniProt P28007 1-205): the binding entry was “binds”.

As to uL3 (from UniProt P14126 1-387), the binding entry is given as “binds”.

As to eL21 (from UniProt Q02753), the binding entry is given as “binds”.

The record behind these values is article PMC8536713.
